At least one structure is not confirmed: it was looked up by name or label, or the drawing left a doubt. Some of these results come from one statement about several compounds together.
Tests used:
heparanase = biological target: T1, heparanase (Homo sapiens, UniProt Q9Y251); assay: Heparanase colorimetric assay (fondaparinux substrate, WST-1); assay type: biochemical; conditions: added up to 1 uM
T1 sequence (Q9Y251 158-543 limits assumed): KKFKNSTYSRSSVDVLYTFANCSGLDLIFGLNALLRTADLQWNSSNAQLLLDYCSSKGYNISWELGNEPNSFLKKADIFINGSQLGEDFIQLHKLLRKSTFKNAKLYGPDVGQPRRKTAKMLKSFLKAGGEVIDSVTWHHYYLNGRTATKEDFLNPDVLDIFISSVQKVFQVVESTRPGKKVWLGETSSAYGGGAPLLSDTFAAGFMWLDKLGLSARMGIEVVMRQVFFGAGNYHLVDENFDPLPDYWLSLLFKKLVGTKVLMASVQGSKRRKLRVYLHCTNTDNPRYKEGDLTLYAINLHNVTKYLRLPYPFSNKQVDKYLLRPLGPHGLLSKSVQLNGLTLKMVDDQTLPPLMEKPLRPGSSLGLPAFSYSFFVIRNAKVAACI
T1 sequence (Q9Y251 36-109 limits assumed): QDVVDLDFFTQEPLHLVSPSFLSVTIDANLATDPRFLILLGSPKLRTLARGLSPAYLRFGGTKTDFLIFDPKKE

By UniProt entry, the sequences of proteins in these tests, tags left out. Residues count along the entry.
UniProt P09038, 143-288, species assumed: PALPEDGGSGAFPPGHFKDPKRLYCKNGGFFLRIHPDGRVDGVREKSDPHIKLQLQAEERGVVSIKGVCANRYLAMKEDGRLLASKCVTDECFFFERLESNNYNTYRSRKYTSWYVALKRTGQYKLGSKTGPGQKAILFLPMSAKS

[1] = biological target: FGF-2-heparin interaction (Homo sapiens, UniProt P09038); assay: Competition bio-layer interferometry (BLI) on the FGF-2-heparin interaction; assay type: binding; conditions: FGF-2 75 nM, biotinylated heparin as ligand

Structure (SMILES)	absorbance (heparanase activity) in words (heparanase)	concentrations at which inhibitory activity was exhibited [1] [µM]
CC(=O)NCCOC1OC(C(=O)O)C(OC2OC(CO)C(OCCC(=O)NCCOC3OC(C(=O)O)C(OC4OC(COS(=O)(=O)O)C(OCCC(=O)NCCOC5OC(C(=O)O)C(OC6OC(COS(=O)(=O)O)C(OCCC(=O)O)C(O)C6NS(=O)(=O)O)C(O)C5OS(=O)(=O)O)C(O)C4NS(=O)(=O)O)C(O)C3OS(=O)(=O)O)C(O)C2NS(=O)(=O)O)C(O)C1O (centres unmarked) [Compound 50a]	did not decrease dramatically	
CO[C@H]1O[C@H](COS(=O)(=O)O)[C@@H](O[C@@H]2O[C@@H](C(=O)O)[C@@H](O[C@H]3O[C@H](COS(=O)(=O)O)[C@@H](O[C@@H]4O[C@H](C(=O)O)[C@@H](O[C@H]5O[C@H](COS(=O)(=O)O)[C@@H](O)[C@H](O)[C@H]5NS(=O)(=O)O)[C@H](O)[C@H]4O)[C@H](OS(=O)(=O)O)[C@H]3NS(=O)(=O)O)[C@H](O)[C@H]2OS(=O)(=O)O)[C@H](O)[C@H]1NS(=O)(=O)O [fondaparinux]		> 4
